Data on one molecule can be found in patent US20250032566A1 (YEDA RESEARCH AND DEVELOPMENT, published 2025).

No constants are given. Whether binding was seen depends on the method and setting. Binding seen in cells or lysates may run through a third protein. Some entries that bind do so weakly or less than the wild type. Tags and fused reporters may be left off the sequences shown.

The target of the test is T1, DSR2(H171A), SIR2 active-site mutant of DSR2 from Bacillus subtilis 29R (Bacillus subtilis 29R) (UniProt P0DXN8).
T1 sequence: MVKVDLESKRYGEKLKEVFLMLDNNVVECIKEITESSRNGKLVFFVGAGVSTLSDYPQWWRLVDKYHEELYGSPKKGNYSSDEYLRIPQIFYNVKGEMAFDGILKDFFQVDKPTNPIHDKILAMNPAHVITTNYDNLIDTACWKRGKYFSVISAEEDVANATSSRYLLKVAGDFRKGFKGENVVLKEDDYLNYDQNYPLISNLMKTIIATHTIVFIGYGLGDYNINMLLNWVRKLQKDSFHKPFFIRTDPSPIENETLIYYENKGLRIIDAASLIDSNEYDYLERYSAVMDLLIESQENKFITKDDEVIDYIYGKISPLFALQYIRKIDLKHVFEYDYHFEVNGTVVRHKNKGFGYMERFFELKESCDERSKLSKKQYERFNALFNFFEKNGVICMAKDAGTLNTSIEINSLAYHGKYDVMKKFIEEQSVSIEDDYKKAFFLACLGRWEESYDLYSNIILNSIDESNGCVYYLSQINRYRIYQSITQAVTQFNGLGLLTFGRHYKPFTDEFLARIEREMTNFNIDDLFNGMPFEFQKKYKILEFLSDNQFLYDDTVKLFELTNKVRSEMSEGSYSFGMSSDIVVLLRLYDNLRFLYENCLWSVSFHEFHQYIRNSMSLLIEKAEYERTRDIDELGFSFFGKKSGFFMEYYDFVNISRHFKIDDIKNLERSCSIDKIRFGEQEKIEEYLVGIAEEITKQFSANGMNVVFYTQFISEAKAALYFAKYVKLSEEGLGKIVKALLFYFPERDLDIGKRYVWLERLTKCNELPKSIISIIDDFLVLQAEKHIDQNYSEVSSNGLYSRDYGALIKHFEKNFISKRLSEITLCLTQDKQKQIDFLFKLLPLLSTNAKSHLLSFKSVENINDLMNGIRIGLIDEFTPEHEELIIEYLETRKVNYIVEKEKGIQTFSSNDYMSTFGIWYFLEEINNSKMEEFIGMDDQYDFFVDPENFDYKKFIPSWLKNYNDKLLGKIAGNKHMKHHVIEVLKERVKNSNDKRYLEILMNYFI
As to the kind of experiment: Strep-tag pulldown (MagStrep XT beads) from E. coli co-expressing DSR2(H171A) and DSAD1 with C-terminal tag; SDS-PAGE, Coomassie.

B1: DSAD1 (DSR Anti Defense 1) with C-terminal twin streptavidin tag (protein)
chain: MIEIFKDTGATHDLVYHSKINTFVWDVEFDIVLSDSKELNKCYFVKCFNPYRINGKCDFAVSSIDIFSEGKRLLIENEFNFKITKAVHVATSKDVTEIVLHLSERISSPFPIVKEVVYLD
In the case of B1, the binding entry is “binds”.
